Patent US20230181614A1, “ADMINISTRATION OF CITICOLINE TO IMPROVE COGNITIVE PERFORMANCE, ATTENTIONAL PERFORMANCE, AND MOTOR FUNCTION” (KYOWA HAKKO BIO CO., LTD., priority 2014, published 2023)
At least one structure is not confirmed: it was looked up by name or label, or the drawing left a doubt.

Tests used:
[1] = system: Healthy subjects, ages 13-18; test: Exercise and Life Style Questionnaire; assay type: in vivo, human
Source text: (§1) Study participants were screened by telephone prior to study enrollment. Healthy subjects, ages 13-18, with no significant medical conditions and no history of co-morbid psychiatric disorder, current Axis I or II diagnosis, or previous participation in a pharmacotherapeutic trial, were selected. Use of any psychotropic medication or any previous head injury resulting in loss of consciousness for 5 or more minutes were used as exclusion criteria. While no participant met criteria for a neuropsychiatric disorder at enrollment, clinical assessments were still completed throughout the study to evaluate changes in mood state. In addition, self-reports of sleep habits, lifestyle, and exercise routines were also administered at baseline as well as at each study visit to assess changes in health habits during study participation. Following the completion of Visit 1 assessment, participants were given their 28-day supply of citicoline (250 mg or 500 mg) or placebo, which was randomly assigned. They were instructed to take one capsule a day every day for the next 28 days. Visit 2 occurred fourteen days after Visit 1. At Visit 2, the remaining study pills were counted and participant dosage calendars were checked to ensure compliance with the protocol. Additional neuropsychological measures and clinical assessments were administered during this visit. Participants returned for Visit 3 fourteen days later, on the 28th day of their study participation. The pill bottle and the dosage calendar were collected from each participant. Urine and blood were again obtained. Participants also participated in similar clinical and neuropsychological testing and clinical measures that were given during visit 1. The General Questionnaire and Exercise and Life Style Questionnaire are self-report questionnaires designed to assess a variety of symptoms, behaviors, and self-perceptions, including mood, complexion, exercise, food, and alcohol habits of each of the participants. The General Questionnaire was administered during each of the three study visits; the Exercise and Life Style Questionnaire was administered during each of the three study visits. The Exercise/Lifestyle Questionnaire included four summary categories (Exercise, Appetite, Smoke, and Alcohol), each of which consisted of multiple individual items. Within and between group analyses are reported below for each of the summary categories.

[2] = system: Healthy subjects, ages 13-18; test: General Questionnaire; assay type: in vivo, human
Source text: as §1, with “The General” for “The Exercise/Lifestyle”, “included five” for “included four”, “categories (Vision, Depression, Attention, Sleep,” for “categories (Exercise, Appetite, Smoke,”, “and Complexion)” for “and Alcohol),”, “which had” for “which consisted of”

Question: Which results are given for `C[N+](C)(C)CCOP(=O)(O)OP(=O)([O-])OC[C@H]1O[C@@H](n2ccc(N)nc2=O)[C@H](O)[C@@H]1O` [citicoline, Cytidine 5′-diphosphocholine]?
Answer: Exercise/Lifestyle Questionnaire difference scores (exercise, appetite, smoking), between groups ([1]; 250 mg/day vs 500 mg/day, visit 1 to visit 3, p=0.27, 0.74, 0.35): no significant differences; Exercise/Lifestyle Questionnaire appetite, between groups ([1]; 250 mg/day vs 500 mg/day, visit 3, p=0.04): significant differences; Exercise/Lifestyle Questionnaire exercise, smoking, alcohol consumption, between groups ([1]; 250 mg/day vs 500 mg/day, visit 3, p=0.83, 0.35, 0.35): no significant differences; Exercise/Lifestyle Questionnaire difference scores (exercise, appetite, smoking, alcohol use), between groups ([1]; 250 mg/day vs Placebo, visit 1 to visit 3, p=0.79, 0.11, 0.35, 0.29): no significant differences; Exercise/Lifestyle Questionnaire appetite, between groups ([1]; 250 mg/day vs Placebo, visit 3, p<0.01): significant differences; Exercise/Lifestyle Questionnaire exercise, smoking, alcohol use, between groups ([1]; 250 mg/day vs Placebo, visit 3, p=0.39, 0.35, 0.35): No significant differences; Exercise/Lifestyle Questionnaire appetite, within-group change ([1]; 250 mg/day, visit 1 to visit 3, p=0.08): trend toward differences; Exercise/Lifestyle Questionnaire exercise and smoking, within-group change ([1]; 250 mg/day, visit 1 to visit 3, p=0.29, p=0.16): no significant change; Exercise/Lifestyle Questionnaire exercise, within-group change ([1]; 500 mg/day, visit 1 to visit 3, p<0.01): significant differences; Exercise/Lifestyle Questionnaire appetite, within-group change ([1]; 500 mg/day, visit 1 to visit 3, p=0.09): trend toward changes; Exercise/Lifestyle Questionnaire difference scores (exercise, appetite, alcohol use), between groups ([1]; Placebo vs 500 mg/day, visit 1 to visit 3, p=0.44, 0.34, 0.32): no significant differences; Exercise/Lifestyle Questionnaire exercise and appetite, between groups ([1]; Placebo vs 500 mg/day, visit 3, p=0.47, p=0.53): No significant differences; Exercise/Lifestyle Questionnaire difference scores (exercise, appetite, smoking, alcohol), analysis of variance ([1]; three groups, p=0.28, 0.17, 0.21, 0.18): no significant differences; Exercise/Lifestyle Questionnaire exercise, smoking, alcohol, analysis of variance ([1]; three groups, visit 3, p=0.41, 0.21, 0.21): No significant differences; Exercise/Lifestyle Questionnaire appetite, analysis of variance ([1]; three groups, visit 3, p=.01): significant differences; Exercise/Lifestyle Questionnaire appetite, post-hoc, 250 mg/day relative to 500 mg/day and Placebo ([1]; visit 3, p=0.04, p=0.01): significantly higher scores; General Questionnaire difference scores (vision, depression, attention, sleep, complexion), between groups ([2]; 250 mg/day vs 500 mg/day, visit 1 to visit 3, p=0.38, 0.40, 0.91, 0.17, 0.23): no significant differences; General Questionnaire vision, sleep, complexion, between groups ([2]; 250 mg/day vs 500 mg/day, visit 3, p=0.24, 0.50, 0.12): No significant differences; General Questionnaire difference scores (vision, depression, attention, sleep, complexion), between groups ([2]; 250 mg/day vs Placebo, visit 1 to visit 3, p=0.84, 0.48, 0.95, 0.24, 0.21): no significant differences; General Questionnaire vision, depression, attention, sleep, complexion, between groups ([2]; 250 mg/day vs Placebo, visit 3, p=0.13, 0.15, 0.11, 0.24, 0.49): no significant differences; General Questionnaire total vision, depression, attention, sleep, within-group change ([2]; 250 mg/day, visit 1 to visit 3, p<0.01, <0.01, 0.04, <0.01): improvement; General Questionnaire complexion, within-group change ([2]; 250 mg/day, visit 1 to visit 3, p=0.09): trend toward improved complexion; General Questionnaire total vision, depression, attention, sleep, complexion, within-group change ([2]; 500 mg/day, visit 1 to visit 3, p<0.01, <0.01, 0.01, <0.01, <0.01): improvement; General Questionnaire difference scores (vision, depression, attention, sleep, complexion), between groups ([2]; Placebo vs 500 mg/day, visit 1 to visit 3, p=0.51, 0.91, 0.94, 0.79, 0.80): no significant differences; General Questionnaire vision, depression, attention, sleep, complexion, between groups ([2]; Placebo vs 500 mg/day, visit 3, p=0.60, 0.28, 0.58, 0.57, 0.31): No significant differences; General Questionnaire difference scores (vision, depression, attention, sleep, complexion), overall ([2]; three groups, p=0.33, 0.32, 0.50, 0.14, 0.16): no significant differences; General Questionnaire depression and attention, overall analysis ([2]; three groups, visit 3, p=0.02, p=0.03): significant differences; General Questionnaire depression and attention, post-hoc, 500 mg/day relative to 250 mg/day ([2]; visit 3, p=0.02, p=0.04): lower scores; General Questionnaire depression and attention, 500 mg/day relative to 250 mg/day ([2]; visit 3, p=0.03, p=0.04): lower scores; General Questionnaire attention, post-hoc, Placebo relative to 250 mg/day ([2]; visit 3, p=0.09): trend toward lower scores
